Results are given in words; binding and its absence hold for the method and conditions named. Some results given as binding are weak or reduced against the parent protein; the word gives no strength.

The text below walks through data of patent publication US20100316644A1 (ACCELERON PHARMA, published 2010).

For the experiment, the target named is T1, Growth-and-Differentiation Factor-3 (GDF3) (UniProt Q9NR23).
T1 sequence (looked up): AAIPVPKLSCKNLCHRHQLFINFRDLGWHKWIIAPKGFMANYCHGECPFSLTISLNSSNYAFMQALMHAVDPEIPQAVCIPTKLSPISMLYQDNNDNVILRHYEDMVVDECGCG
The experiment can be described thus: Biacore (data not shown). (In SPR one partner is held on a chip, and binding of the other changes the refractive index at the surface.)

B1: ActRIIB(20-134)-hFc (Fc fusion, not shown: a dimerising Fc or GST)
chain: GRGEAETRECIYYNANWELERTNQSGLERCEGEQDKRLHCYASWRNSSGTIELVKKGCWLDDFNCYDRQECVATEENPQVYFCCCEGNFCNERFTHLPEAGGPEVTYEPPPTAPT
notes: The residue range comes from the construct name; also called full-length counterpart ActRIIB(20-134)-hFc
With B1, the binding entry is recorded as “binds”.
